Measurements reported in PubChem BioAssay AID1224828 (NIAID, 2016)
Aim: 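Regulators linking TLR4 signalling to p65 nuclear translocation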 (primary screen). Cell system: mouse RAW264.7 G9 macrophage reporter cells (GFP-p65, Tnf promoter-mCherry). Reagent: siRNA pool against mouse genes, 100 nM. Timing: 2 days siRNA transfection, then 40 min LPS before fixation. Conditions: LPS (Salmonella minnesota R595) at 10 ng/ml. Measured: 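Microscopy ratio of nuclear to perinuclear-ring GFP-p65 signal, scaled to the plate median; gene score is the average of two replicate robust z-scores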. Reading the numbers: p65 translocation robust z-score: higher = more nuclear NF-kappaB p65 after LPS than the plate median; nuclear/cytoplasmic p65 ratio: higher = more nuclear NF-kappaB p65. Hit rule: 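Called active when z exceeds 3.3 or falls under -1.56 (median of Tlr4 controls), giving activity score of at least 50; no calls for control wells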. Meaning of the calls: active = hit (p65 shift raised or lowered); inactive = no clear change.
Here is a random part of about 17,000 reagents tested. Of all reagents, 762 (4.5%) are marked active. 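Active calls include both raised and lowered p65 entry, mostly lowered; wells with fewer than 50 cells lack a z-score.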 Raw values are not corrected between plates. Entries without a mark were called inactive. Reagent sequences are not shown.

gene | p65 translocation robust z-score | nuclear/cytoplasmic p65 ratio, rep 1 | nuclear/cytoplasmic p65 ratio, rep 2 | low cell count flag
Ung (uracil DNA glycosylase) | 0.59 | 1.58 | 1.6 | enough cells to score
6030445D17Rik (RIKEN cDNA 6030445D17 gene) | -1.2 | 1.21 | 1.3 | enough cells to score
Dtnbp1 (dystrobrevin binding protein 1) | 0.03 | 1.5 | 1.36 | enough cells to score
Snx31 (sorting nexin 31) | 0.15 | 1.39 | 1.19 | enough cells to score
Prl8a8 (prolactin family 8, subfamily a, member 81) | 0.82 | 1.46 | 1.33 | enough cells to score
Or4c12b (olfactory receptor family 4 subfamily C member 12B) | -0.46 | 1.57 | 1.33 | enough cells to score
Dnajc30 (DnaJ heat shock protein family (Hsp40) member C30) | 0.46 | 1.52 | 1.26 | enough cells to score
Mageb1 (MAGE family member B1) | 3.48 (active) | 2.31 | 2.01 | enough cells to score
Zfand5 (zinc finger, AN1-type domain 5) | -0.96 | 1.28 | 1.14 | enough cells to score
Shq1 (SHQ1 homolog (S. cerevisiae)) | 4.94 (active) | 1.8 | 2.37 | enough cells to score
Tssk4 (testis-specific serine kinase 4) | -1.03 | 1.42 | 1.34 | enough cells to score
Emd (emerin) | -0.58 | 1.53 | 1.28 | enough cells to score
Fam167a (family with sequence similarity 167, member A) | -0.09 | 1.4 | 1.48 | enough cells to score
Vmn1r89 (vomeronasal 1 receptor 89) | – | 1.49 | 1.31 | fewer than 50 cells per well; well left out of scoring
Mc3r (melanocortin 3 receptor) | -0.32 | 1.45 | 1.55 | enough cells to score
Ube2n (ubiquitin-conjugating enzyme E2N) | – | 0.973 | 1.6 | fewer than 50 cells per well; well left out of scoring
Zfp449 (zinc finger protein 449) | 0.79 | 1.55 | 1.64 | enough cells to score
Pprc1 | -0.64 | 1.46 | 1.28 | enough cells to score
Crtc3 (CREB regulated transcription coactivator 3) | -0.51 | 1.41 | 1.87 | enough cells to score
Apoc1 (apolipoprotein C-I) | 0.05 | 1.66 | 1.6 | enough cells to score
Mep1a (meprin 1 alpha) | 1.48 | 1.55 | 1.61 | enough cells to score
Mt1 (metallothionein 1) | 0.48 | 1.87 | 1.66 | enough cells to score
Or7c70 (olfactory receptor family 7 subfamily C member 70) | 3.37 (active) | 1.96 | 2 | enough cells to score
Zmpste24 (zinc metallopeptidase, STE24) | 0.38 | 1.68 | 1.55 | enough cells to score
A330015D16RIK | 2.66 | 1.59 | 1.9 | enough cells to score
Zfp27 (zinc finger protein 27) | -0.76 | 1.32 | 1.16 | enough cells to score
Sprn (shadow of prion protein) | 0.17 | 1.43 | 1.26 | enough cells to score
Nup133 (nucleoporin 133) | -0.06 | 1.89 | 1.36 | enough cells to score

Limited to “low cell count flag” (4 entries from above):
Zmpste24 (zinc metallopeptidase, STE24): enough cells to score
A330015D16RIK: enough cells to score
Zfp27 (zinc finger protein 27): enough cells to score
Sprn (shadow of prion protein): enough cells to score

Next reagents:
gene | p65 translocation robust z-score | nuclear/cytoplasmic p65 ratio, rep 1 | nuclear/cytoplasmic p65 ratio, rep 2 | low cell count flag
Aqp11 (aquaporin 11) | – | 1.35 | 1.58 | fewer than 50 cells per well; well left out of scoring
Chfr (checkpoint with forkhead and ring finger domains) | 0.07 | 1.42 | 1.43 | enough cells to score
Cd69 (CD69 antigen) | -1.3 | 1.28 | 1.21 | enough cells to score
Or10d5j (olfactory receptor family 10 subfamily D member 5J) | 1.15 | 1.6 | 1.25 | enough cells to score
Kcnq3 (potassium voltage-gated channel, subfamily Q, member 3) | 1.13 | 1.57 | 1.58 | enough cells to score
Prodh2 (proline dehydrogenase (oxidase) 2) | 1.06 | 1.61 | 1.57 | enough cells to score
Cxadr (coxsackie virus and adenovirus receptor) | 1.29 | 1.7 | 1.5 | enough cells to score
Nutm1 (NUT midline carcinoma, family member 1) | -0.44 | 1.65 | 1.43 | enough cells to score
Rag1 (recombination activating 1) | 0.1 | 1.61 | 1.46 | enough cells to score
Vnn3 (vanin 3) | -0.55 | 1.28 | 1.2 | enough cells to score
Tril (TLR4 interactor with leucine-rich repeats) | -0.36 | 1.35 | 1.43 | enough cells to score
Angptl3 (angiopoietin-like 3) | 0 | 1.61 | 1.63 | enough cells to score
Sytl2 (synaptotagmin-like 2) | -0.66 | 1.2 | 1.12 | enough cells to score
Lrrc58 (leucine rich repeat containing 58) | – | 1.26 | 1.36 | fewer than 50 cells per well; well left out of scoring
Ugt1a2 (UDP glucuronosyltransferase 1 family, polypeptide A2) | – | 1.03 | 1.56 | fewer than 50 cells per well; well left out of scoring
Nckap1 (NCK-associated protein 1) | 0.13 | 1.36 | 1.36 | enough cells to score
Pcsk2 (proprotein convertase subtilisin/kexin type 2) | -1.41 | 1.25 | 1.11 | enough cells to score
Rmnd1 (required for meiotic nuclear division 1 homolog) | 0.68 | 1.5 | 1.67 | enough cells to score
Pi15 (peptidase inhibitor 15) | 0.39 | 1.47 | 1.3 | enough cells to score
Zfp180 (zinc finger protein 180) | -0.04 | 1.4 | 1.24 | enough cells to score
Or7d10 (olfactory receptor family 7 subfamily D member 10) | – | 1.34 | 1.05 | fewer than 50 cells per well; well left out of scoring
Hspa12b (heat shock protein family A (Hsp70) member 12B) | -0.4 | 1.52 | 1.35 | enough cells to score
Or12k5 (olfactory receptor family 12 subfamily K member 5) | 1.93 | 1.92 | 1.65 | enough cells to score
B530045E10Rik (RIKEN cDNA B530045E10 gene) | 0.81 | 1.76 | 1.91 | enough cells to score
Urgcp (upregulator of cell proliferation) | – | 1.3 | 1.02 | fewer than 50 cells per well; well left out of scoring
Glyat (glycine-N-acyltransferase) | -0.35 | 1.61 | 1.51 | enough cells to score
Cd59b (CD59b antigen) | -1.42 | 1.05 | 1.2 | enough cells to score
Noc4l (NOC4 like) | -0.21 | 1.45 | 1.79 | enough cells to score
Zswim4 (zinc finger SWIM-type containing 4) | -0.63 | 1.35 | 1.16 | enough cells to score
Erv3 (endogenous retroviral sequence 3) | – | 1.46 | 1.67 | fewer than 50 cells per well; well left out of scoring
Zfp119a (zinc finger protein 119a) | – | 1.21 | 1.3 | fewer than 50 cells per well; well left out of scoring
